Assay results as given in the supplement of paper PMC11732987, “Enantioselective OTUD7B fragment discovery through chemoproteomics screening and high-throughput optimisation” (Communications Chemistry, 2025).
This is one part of the list. The data scatter; read single values as rough.

By UniProt entry, the sequences of proteins in these tests, tags left out. Where a name states a change or a piece, a line headed by the entry shows the natural chain unless it says otherwise. Residues count along the entry.
UniProt P46013: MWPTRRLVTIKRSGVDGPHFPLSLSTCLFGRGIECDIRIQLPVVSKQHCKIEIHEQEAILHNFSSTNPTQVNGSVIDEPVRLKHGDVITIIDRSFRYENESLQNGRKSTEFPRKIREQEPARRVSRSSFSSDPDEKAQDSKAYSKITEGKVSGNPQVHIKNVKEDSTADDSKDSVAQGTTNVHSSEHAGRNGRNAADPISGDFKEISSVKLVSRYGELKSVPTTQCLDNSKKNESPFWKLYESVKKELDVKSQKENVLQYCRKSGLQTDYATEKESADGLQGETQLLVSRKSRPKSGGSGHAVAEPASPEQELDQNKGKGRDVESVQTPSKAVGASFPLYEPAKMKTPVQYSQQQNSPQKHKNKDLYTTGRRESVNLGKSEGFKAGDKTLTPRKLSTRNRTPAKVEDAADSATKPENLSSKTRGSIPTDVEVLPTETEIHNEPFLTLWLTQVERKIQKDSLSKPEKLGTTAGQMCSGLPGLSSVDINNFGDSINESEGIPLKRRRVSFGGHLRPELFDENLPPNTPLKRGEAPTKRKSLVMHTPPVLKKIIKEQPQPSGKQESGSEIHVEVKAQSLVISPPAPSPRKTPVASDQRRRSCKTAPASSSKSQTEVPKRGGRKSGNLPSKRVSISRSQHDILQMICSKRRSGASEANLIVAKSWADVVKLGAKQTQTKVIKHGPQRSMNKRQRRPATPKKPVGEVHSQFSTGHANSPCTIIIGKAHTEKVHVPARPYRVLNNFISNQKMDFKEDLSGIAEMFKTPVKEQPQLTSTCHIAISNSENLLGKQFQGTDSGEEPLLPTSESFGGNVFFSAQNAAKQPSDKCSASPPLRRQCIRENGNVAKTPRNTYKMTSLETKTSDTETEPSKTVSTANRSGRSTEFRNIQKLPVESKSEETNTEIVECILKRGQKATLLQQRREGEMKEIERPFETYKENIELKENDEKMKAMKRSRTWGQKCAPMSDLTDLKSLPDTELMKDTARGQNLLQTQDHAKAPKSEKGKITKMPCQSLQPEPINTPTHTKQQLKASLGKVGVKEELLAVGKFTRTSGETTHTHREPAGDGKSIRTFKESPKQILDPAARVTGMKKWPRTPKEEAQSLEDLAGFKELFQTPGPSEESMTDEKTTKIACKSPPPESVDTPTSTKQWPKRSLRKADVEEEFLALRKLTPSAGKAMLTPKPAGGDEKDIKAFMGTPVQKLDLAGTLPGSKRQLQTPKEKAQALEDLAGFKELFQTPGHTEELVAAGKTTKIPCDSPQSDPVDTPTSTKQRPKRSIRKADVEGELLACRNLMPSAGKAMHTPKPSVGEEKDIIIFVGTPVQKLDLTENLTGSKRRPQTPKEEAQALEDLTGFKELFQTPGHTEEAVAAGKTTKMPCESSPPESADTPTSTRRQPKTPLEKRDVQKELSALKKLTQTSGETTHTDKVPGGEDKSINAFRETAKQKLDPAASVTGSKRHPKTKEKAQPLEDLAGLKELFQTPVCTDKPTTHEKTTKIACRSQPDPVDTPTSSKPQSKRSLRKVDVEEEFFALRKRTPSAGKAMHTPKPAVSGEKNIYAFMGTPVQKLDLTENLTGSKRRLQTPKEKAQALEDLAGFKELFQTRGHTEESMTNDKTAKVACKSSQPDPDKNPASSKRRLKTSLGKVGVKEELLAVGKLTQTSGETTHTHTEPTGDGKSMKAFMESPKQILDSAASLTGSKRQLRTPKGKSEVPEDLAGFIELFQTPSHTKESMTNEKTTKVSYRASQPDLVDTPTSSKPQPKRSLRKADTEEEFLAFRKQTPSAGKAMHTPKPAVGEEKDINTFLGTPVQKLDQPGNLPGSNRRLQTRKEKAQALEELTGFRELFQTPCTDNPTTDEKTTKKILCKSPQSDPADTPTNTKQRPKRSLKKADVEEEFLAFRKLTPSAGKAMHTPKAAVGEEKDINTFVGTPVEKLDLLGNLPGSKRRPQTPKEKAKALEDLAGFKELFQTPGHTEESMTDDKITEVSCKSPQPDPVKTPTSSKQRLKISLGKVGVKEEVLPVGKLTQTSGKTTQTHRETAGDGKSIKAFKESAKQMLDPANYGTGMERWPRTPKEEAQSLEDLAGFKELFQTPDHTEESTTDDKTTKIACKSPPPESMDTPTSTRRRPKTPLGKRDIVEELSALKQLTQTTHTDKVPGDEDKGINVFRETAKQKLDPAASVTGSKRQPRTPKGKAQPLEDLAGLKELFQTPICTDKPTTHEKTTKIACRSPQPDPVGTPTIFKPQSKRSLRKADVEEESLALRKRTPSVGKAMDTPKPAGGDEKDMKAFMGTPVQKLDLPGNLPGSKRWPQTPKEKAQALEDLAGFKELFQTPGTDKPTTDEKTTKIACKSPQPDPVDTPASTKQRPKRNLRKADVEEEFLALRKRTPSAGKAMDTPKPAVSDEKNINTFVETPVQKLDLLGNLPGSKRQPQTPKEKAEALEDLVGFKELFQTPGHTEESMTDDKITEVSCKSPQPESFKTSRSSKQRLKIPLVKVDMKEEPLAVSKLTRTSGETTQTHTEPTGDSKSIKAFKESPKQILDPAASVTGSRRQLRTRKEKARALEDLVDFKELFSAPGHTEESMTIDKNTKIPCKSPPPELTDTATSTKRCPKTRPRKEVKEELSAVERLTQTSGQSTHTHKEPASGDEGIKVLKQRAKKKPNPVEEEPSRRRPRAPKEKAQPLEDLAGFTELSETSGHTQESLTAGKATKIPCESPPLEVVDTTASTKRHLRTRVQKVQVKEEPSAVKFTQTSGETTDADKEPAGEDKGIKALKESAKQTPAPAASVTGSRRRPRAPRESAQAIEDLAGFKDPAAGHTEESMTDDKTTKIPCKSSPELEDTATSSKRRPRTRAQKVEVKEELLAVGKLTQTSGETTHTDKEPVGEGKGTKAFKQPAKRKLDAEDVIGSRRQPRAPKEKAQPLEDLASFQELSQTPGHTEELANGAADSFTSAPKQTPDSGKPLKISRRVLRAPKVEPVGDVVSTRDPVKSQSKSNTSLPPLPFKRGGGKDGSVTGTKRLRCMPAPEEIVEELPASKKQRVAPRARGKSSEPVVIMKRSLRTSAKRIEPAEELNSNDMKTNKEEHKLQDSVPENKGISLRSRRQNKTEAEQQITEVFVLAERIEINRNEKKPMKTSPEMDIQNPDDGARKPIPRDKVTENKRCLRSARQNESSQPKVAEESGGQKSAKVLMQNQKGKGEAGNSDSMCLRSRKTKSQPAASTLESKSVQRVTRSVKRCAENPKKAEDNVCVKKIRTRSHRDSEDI
UniProt P50579, 111-131: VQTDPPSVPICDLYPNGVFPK
UniProt Q8IWI9: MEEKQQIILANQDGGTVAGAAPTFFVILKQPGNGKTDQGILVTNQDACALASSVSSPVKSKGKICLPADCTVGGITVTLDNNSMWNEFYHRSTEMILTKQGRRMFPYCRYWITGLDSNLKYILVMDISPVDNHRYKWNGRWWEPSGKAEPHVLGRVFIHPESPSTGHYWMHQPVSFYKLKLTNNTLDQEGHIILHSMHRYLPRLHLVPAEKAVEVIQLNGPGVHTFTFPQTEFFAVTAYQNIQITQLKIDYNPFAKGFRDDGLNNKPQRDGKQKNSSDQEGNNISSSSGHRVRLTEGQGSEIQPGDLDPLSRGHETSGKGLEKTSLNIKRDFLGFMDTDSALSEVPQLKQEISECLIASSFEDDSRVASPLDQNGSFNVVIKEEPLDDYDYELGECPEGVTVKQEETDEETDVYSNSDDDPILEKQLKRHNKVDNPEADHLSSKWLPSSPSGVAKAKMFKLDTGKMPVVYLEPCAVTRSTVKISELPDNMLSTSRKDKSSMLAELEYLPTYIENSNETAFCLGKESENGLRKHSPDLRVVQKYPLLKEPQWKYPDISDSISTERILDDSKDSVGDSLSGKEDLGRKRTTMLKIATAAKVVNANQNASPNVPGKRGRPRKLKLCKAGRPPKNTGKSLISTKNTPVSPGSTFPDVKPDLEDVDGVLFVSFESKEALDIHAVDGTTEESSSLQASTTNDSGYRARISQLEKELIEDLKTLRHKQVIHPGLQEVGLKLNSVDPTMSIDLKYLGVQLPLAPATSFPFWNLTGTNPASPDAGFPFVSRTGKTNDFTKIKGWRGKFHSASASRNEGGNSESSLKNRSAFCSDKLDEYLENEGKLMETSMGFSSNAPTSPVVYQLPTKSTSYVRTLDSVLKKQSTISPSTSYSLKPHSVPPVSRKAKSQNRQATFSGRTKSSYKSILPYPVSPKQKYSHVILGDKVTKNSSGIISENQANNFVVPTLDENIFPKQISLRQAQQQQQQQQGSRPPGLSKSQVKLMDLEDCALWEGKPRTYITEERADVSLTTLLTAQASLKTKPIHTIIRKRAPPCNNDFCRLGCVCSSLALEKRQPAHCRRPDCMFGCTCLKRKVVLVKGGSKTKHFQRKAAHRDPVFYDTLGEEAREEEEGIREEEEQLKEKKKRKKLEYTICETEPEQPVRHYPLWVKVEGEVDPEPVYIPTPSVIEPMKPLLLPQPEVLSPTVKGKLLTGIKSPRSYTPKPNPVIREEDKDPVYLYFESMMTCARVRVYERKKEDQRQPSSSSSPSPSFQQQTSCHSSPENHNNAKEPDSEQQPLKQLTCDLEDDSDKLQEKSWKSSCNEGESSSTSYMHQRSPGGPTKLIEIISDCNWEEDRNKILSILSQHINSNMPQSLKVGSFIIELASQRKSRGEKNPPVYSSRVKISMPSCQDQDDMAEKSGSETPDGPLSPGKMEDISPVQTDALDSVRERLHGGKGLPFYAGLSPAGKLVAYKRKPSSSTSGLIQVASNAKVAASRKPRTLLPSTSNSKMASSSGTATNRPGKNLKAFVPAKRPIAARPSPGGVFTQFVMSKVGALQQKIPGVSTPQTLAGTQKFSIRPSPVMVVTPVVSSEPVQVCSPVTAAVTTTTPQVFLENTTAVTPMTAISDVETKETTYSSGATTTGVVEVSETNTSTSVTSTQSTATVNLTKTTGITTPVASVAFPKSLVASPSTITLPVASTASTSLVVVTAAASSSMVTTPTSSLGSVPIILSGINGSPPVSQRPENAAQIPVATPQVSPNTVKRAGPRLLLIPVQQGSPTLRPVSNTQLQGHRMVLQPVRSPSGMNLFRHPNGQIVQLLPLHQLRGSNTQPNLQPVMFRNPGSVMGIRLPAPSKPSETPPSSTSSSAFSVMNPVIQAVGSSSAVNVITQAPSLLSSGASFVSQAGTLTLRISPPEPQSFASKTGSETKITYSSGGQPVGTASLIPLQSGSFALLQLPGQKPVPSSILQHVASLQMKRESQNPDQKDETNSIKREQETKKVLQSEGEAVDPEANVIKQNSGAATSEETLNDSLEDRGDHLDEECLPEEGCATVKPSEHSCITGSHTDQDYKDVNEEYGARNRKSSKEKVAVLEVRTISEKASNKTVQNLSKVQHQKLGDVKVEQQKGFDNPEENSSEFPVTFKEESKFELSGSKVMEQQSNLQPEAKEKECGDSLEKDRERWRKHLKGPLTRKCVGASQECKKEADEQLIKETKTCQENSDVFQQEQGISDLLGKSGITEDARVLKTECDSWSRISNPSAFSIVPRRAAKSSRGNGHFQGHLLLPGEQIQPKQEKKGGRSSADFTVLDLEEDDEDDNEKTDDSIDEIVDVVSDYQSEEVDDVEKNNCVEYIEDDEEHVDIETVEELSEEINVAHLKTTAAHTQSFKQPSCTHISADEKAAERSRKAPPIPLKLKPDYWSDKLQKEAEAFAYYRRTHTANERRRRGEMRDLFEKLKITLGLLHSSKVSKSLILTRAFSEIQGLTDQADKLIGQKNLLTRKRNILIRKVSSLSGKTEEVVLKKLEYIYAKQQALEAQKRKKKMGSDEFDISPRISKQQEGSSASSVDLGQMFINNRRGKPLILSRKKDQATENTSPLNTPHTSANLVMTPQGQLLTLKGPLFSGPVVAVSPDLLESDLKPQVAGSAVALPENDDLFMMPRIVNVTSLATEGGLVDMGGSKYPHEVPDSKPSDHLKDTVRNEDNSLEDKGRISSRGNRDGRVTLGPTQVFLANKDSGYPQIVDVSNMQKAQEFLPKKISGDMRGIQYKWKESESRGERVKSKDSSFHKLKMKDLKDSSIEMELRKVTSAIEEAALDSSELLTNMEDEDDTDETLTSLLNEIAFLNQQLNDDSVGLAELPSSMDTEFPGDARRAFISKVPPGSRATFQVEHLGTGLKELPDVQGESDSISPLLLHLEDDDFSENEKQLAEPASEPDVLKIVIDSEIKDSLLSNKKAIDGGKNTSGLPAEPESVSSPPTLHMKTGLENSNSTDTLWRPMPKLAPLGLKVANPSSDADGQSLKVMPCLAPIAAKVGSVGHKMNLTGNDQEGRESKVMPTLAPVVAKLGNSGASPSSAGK
UniProt Q9HAP2, 180-199: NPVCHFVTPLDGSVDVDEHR
UniProt Q9NWA0: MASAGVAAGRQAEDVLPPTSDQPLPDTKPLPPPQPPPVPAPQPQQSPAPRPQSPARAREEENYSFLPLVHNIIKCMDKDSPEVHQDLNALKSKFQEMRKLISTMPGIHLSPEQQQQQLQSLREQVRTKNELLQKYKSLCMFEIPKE
UniProt Q9NU22, 267-289: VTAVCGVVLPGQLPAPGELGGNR
UniProt Q14149, 742-762: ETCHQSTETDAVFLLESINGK
UniProt Q8IWA4, 420-439: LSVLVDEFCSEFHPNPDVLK

Legend:
[1] = compound: ClCC(=O)N[C@@H]1CCCc2ccccc12; assay: log2 mean competition ratio of IA-DTB cysteine labelling (DMSO/compound) (log2 ratio); higher = stronger cysteine engagement by compound; details: treatment time: 4 h, cell line lysate: HEK293T
Method: (§1)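 IA-DTB competitive cysteine chemoproteomics in HEK293T RIPA lysate. Lysates were treated with compound 29 or 30 at 50 or 200 µM for 4 h, then IA-DTB (500 µM, 1 h), trypsin-digested, NeutrAvidin-enriched and analysed by diaPASEF. Competition ratio = intensity DMSO / intensity compound (n=4 treated, n=64 DMSO); binding: mean log2 CR ≥ 1 and p ≤ 0.05 plus QC filters. Target is the cysteine site.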

[2] = compound: ClCC(=O)N[C@H]1CCCc2ccccc12; assay: as above; details: treatment time: 4 h, cell line lysate: HEK293T
Method: as §1

| Target | log2 mean competition ratio ([1]; 50 µM) | log2 mean competition ratio ([1]; 200 µM) | log2 mean competition ratio ([2]; 50 µM) | log2 mean competition ratio ([2]; 200 µM) |
| --- | --- | --- | --- | --- |
| MMADHC C6 (UniProt Q9H3L0) | -0.0884 | 0.423 | 0.262 | – |
| MID1 C375 (UniProt O15344) | 0.081 | -0.359 | – | – |
| MIEF2 C367 | -0.0414 | 0.133 | – | -0.0757 |
| MKI67 C261 (UniProt P46013) | 0.409 | -0.0888 | 0.811 | 0.0954 |
| METAP2 C121 (UniProt P50579) | -0.279 | 0.24 | – | – |
| MGA C1295 (UniProt Q8IWI9) | 0.173 | 0.244 | – | – |
| MRM3 C309 (UniProt Q9HC36) | -0.114 | 0.358 | – | – |
| MKNK1 C231 (UniProt Q9BUB5) | -0.219 | -0.073 | -0.675 | 0.0618 |
| MORC4 C324 | 0.178 | 0.113 | – | – |
| MLST8 C107 (UniProt Q9BVC4) | 0.0493 | -0.227 | – | – |
| MDH1 C137 (UniProt P40925) | -0.259 | 0.292 | – | – |
| MIX23 C74 | 0.0972 | -0.187 | – | – |
| MLYCD C360 (UniProt O95822) | -0.142 | 0.00544 | – | – |
| MICALL1 C801 (UniProt Q8N3F8) | -0.212 | -0.0848 | -0.308 | -0.0317 |
| MLXIP C183 (UniProt Q9HAP2) | 0.567 | 0.127 | – | – |
| MFSD3 C346 | 0.628 | -0.0581 | – | -0.0708 |
| MIA3 C61 (UniProt Q5JRA6) | 0.0632 | 0.0397 | 0.49 | -0.0412 |
| MED9 C139 (UniProt Q9NWA0) | -0.0386 | 0.0446 | 0.463 | 0.321 |
| METTL3 C294 (UniProt Q86U44) | -0.277 | 0.167 | -0.226 | 0.25 |
| MGA C1402 (UniProt Q8IWI9) | -0.124 | -0.063 | 0.66 | 0.281 |
| MIA2 C1187 (UniProt Q96PC5) | -0.221 | 0.237 | 0.13 | 0.292 |

| Target | log2 mean competition ratio ([1]; 50 µM) | log2 mean competition ratio ([1]; 200 µM) | log2 mean competition ratio ([2]; 50 µM) | log2 mean competition ratio ([2]; 200 µM) |
| --- | --- | --- | --- | --- |
| MDN1 C271 (UniProt Q9NU22) | 0.122 | 0.252 | 0.0935 | 0.0798 |
| MPG C215 (UniProt P29372) | -0.0483 | 0.0249 | -0.139 | 0.0994 |
| MGRN1 C528 (UniProt O60291) | 0.0741 | -0.0854 | -0.0781 | 0.113 |
| MGA C1342 (UniProt Q8IWI9) | 0.00524 | 0.23 | -0.0145 | 0.0672 |
| MIA3 C1513 (UniProt Q5JRA6) | 0.0124 | -0.0679 | 0.146 | 0.0695 |
| METTL9 C59 (UniProt Q9H1A3) | -0.11 | -0.0823 | 0.356 | 0.124 |
| MKI67 C1479 (UniProt P46013) | 0.211 | -0.0683 | -0.0198 | -0.0791 |
| MPDZ C297 (UniProt O75970) | -0.164 | 0.000221 | 0.189 | 0.0374 |
| MED14 C708 (UniProt O60244) | -0.187 | -0.377 | 0.534 | -0.346 |
| MDH2 C93 (UniProt P40926) | -0.236 | 0.371 | -0.0893 | 0.436 |
| MORC3 C744 (UniProt Q14149) | -0.0875 | 0.533 | -0.0393 | -0.193 |
| MFN1 C428 (UniProt Q8IWA4) | 0.00404 | -0.179 | -0.58 | 0.33 |
| MINDY1 C94 (UniProt Q8N5J2) | -0.00989 | -0.198 | 0.136 | -0.205 |
| MLLT3 C5 | 0.198 | -0.474 | 0.00907 | 0.0097 |
| MED24 C218 | 0.00359 | 0.0146 | -0.194 | 0.0477 |
| MICAL3 C1760 (UniProt Q7RTP6) | 0.368 | -0.513 | -0.371 | -0.157 |
| MIS12 C133 (UniProt Q9H081) | 0.0219 | -0.223 | 0.387 | 0.0475 |
| MED1 C681 (UniProt Q15648) | 0.0101 | -0.0586 | 0.172 | -0.0038 |
| MRC2 C521 (UniProt Q9UBG0) | 0.261 | 0.152 | -0.0917 | -0.0106 |
| MRM3 C244 (UniProt Q9HC36) | 0.623 | 0.335 | 0.479 | 0.207 |
| MMS19 C794 (UniProt Q96T76) | -0.0807 | 0.0327 | 0.115 | -0.00939 |

| Target | log2 mean competition ratio ([1]; 50 µM) | log2 mean competition ratio ([1]; 200 µM) | log2 mean competition ratio ([2]; 50 µM) | log2 mean competition ratio ([2]; 200 µM) |
| --- | --- | --- | --- | --- |
| MORC3 C15 (UniProt Q14149) | -0.11 | 0.133 | -0.0297 | 0.159 |
| MPG C56 (UniProt P29372) | -0.0711 | 0.102 | -0.109 | -0.0853 |
| MPP1 C179 (UniProt Q00013) | 0.0226 | -0.0862 | -0.119 | -0.12 |
| MFN1 C681 (UniProt Q8IWA4) | -0.142 | 0.0529 | -0.651 | -0.0615 |
| MORC3 C435 (UniProt Q14149) | 0.0402 | -0.186 | -0.0709 | -0.239 |
| MMS19 C361 (UniProt Q96T76) | 0.231 | -0.0954 | 0.128 | -0.219 |
| MKI67 C824 (UniProt P46013) | -0.0157 | -0.0997 | -0.0837 | -0.0952 |
| MMUT C560 (UniProt P22033) | 0.00257 | 0.157 | -0.252 | 0.033 |
| MKI67 C903 (UniProt P46013) | -0.259 | -0.178 | 0.0136 | 0.0118 |
| MMAA C100 (UniProt Q8IVH4) | 0.0977 | -0.124 | -0.101 | -0.319 |
| MGA C1146 (UniProt Q8IWI9) | -0.161 | -0.0122 | -0.157 | 0.0936 |
| MKI67 C643 (UniProt P46013) | -0.0367 | 0.171 | 0.126 | 0.199 |
| MID1 C580 (UniProt O15344) | 0.275 | 0.104 | 0.146 | 0.115 |
| MIGA1 C150 | 0.248 | 0.52 | -0.202 | 0.0882 |
| MRPL16 C167 (UniProt Q9NX20) | 0.355 | -0.0199 | 0.34 | -0.127 |
| MFN2 C348 (UniProt O95140) | 0.0894 | 0.237 | 0.148 | 0.0851 |
| MPP1 C94 (UniProt Q00013) | -0.313 | 0.2 | -0.186 | 0.0868 |
| MRNIP C161 (UniProt Q6NTE8) | 0.0477 | 0.0843 | 0.278 | 0.0915 |
| MPST C65 (UniProt P25325) | -0.552 | -0.984 | 0.0274 | -0.952 |
| METTL6 C256 (UniProt Q8TCB7) | -0.118 | 0.147 | 0.0752 | 0.139 |

Some of the entries above in another layout:
Target,log2 mean competition ratio ([1]; 50 µM),log2 mean competition ratio ([1]; 200 µM),log2 mean competition ratio ([2]; 50 µM),log2 mean competition ratio ([2]; 200 µM)
MRNIP C161 (UniProt Q6NTE8),0.0477,0.0843,0.278,0.0915
MPST C65 (UniProt P25325),-0.552,-0.984,0.0274,-0.952
METTL6 C256 (UniProt Q8TCB7),-0.118,0.147,0.0752,0.139
